Values of other authors in US20050020668A1, “Combination comprising S-[2-([[1-(2-ethylbutyl)cyclohexyl] carbonyl]amino)phenyl] 2-methylpropanethioate and an HMG CoA reductase inhibitor” (Japan Tobacco Inc., priority 2003, published 2005).
At least one compound was matched to its structure with a doubt left.

Key:
CETP [1] = target: T1, CETP (Oryctolagus cuniculus, UniProt P22687); conditions: rabbits; Shinkai et al., Kobayashi et al., Okamoto et al.; cited from earlier work
T1 sequence (P22687 2-497): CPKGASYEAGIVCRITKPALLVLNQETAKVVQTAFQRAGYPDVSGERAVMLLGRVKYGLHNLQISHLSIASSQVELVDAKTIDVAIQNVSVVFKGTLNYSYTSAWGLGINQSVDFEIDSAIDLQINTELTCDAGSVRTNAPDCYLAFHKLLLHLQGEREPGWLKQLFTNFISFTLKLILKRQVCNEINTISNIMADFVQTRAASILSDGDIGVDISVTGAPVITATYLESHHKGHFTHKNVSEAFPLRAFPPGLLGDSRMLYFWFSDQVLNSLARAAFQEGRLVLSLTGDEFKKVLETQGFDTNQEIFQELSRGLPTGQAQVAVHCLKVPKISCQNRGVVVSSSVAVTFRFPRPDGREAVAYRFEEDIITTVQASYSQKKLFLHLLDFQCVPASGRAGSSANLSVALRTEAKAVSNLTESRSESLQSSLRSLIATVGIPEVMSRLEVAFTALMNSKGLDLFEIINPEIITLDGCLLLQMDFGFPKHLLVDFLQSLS

CETP [2] = target: T2, CETP (Homo sapiens, UniProt P11597); parameters: Each blood sample was tested for levels of lipid parameters (e.g., total cholesterol, triglycerides, HDL-C, LDL-C), CETP activity and mass; from tissue; host or cells: blood (plasma) samples of hyperlipidemic patients; conditions: humans; de Grooth et al.; cited from earlier work
T2 sequence (P11597 18-493): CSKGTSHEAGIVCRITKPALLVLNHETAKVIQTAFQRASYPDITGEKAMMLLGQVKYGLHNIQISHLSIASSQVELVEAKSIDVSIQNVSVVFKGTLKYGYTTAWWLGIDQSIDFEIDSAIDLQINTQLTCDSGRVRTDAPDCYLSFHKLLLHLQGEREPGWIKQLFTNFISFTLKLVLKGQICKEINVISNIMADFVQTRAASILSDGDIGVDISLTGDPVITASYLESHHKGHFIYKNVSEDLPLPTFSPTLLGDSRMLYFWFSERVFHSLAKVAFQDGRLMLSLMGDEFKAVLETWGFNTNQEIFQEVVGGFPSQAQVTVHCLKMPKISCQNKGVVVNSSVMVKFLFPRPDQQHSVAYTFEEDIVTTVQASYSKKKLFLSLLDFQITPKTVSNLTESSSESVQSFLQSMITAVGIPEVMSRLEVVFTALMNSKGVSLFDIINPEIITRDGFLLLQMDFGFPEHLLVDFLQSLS

SMILES: CCC(CC)CC1(C(=O)Nc2ccccc2SC(=O)C(C)C)CCCCC1 [Compound I, S-[2-([[1-(2-ethylbutyl)cyclohexyl]carbonyl]amino)phenyl]2-methylpropanethioate]
- Inhibition of CETP activity (CETP [1]): inhibitor of CETP activity
- Inhibition of CETP activity (CETP [2]): inhibitor of CETP activity
